Results as given in PMC4532879.
These are yes or no findings as the source states them, for the method shown. In cells and extracts the contact can be indirect. Some results given as binding are weak or reduced against the parent protein; the word gives no strength.

Chains of the proteins cited; added tags and fusions are not shown.
UniProt P08670: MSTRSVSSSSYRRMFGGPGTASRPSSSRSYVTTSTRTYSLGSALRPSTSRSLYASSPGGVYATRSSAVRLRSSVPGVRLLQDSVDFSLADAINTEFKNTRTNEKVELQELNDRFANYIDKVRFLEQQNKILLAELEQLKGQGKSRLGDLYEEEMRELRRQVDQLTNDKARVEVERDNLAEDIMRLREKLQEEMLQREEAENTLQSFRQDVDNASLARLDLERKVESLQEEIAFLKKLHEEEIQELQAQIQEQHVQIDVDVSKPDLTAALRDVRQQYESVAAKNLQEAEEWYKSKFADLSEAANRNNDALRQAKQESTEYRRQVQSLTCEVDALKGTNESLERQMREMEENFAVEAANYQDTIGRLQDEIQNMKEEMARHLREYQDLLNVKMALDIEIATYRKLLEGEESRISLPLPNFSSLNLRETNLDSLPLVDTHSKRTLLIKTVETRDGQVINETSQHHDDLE
UniProt Q15149: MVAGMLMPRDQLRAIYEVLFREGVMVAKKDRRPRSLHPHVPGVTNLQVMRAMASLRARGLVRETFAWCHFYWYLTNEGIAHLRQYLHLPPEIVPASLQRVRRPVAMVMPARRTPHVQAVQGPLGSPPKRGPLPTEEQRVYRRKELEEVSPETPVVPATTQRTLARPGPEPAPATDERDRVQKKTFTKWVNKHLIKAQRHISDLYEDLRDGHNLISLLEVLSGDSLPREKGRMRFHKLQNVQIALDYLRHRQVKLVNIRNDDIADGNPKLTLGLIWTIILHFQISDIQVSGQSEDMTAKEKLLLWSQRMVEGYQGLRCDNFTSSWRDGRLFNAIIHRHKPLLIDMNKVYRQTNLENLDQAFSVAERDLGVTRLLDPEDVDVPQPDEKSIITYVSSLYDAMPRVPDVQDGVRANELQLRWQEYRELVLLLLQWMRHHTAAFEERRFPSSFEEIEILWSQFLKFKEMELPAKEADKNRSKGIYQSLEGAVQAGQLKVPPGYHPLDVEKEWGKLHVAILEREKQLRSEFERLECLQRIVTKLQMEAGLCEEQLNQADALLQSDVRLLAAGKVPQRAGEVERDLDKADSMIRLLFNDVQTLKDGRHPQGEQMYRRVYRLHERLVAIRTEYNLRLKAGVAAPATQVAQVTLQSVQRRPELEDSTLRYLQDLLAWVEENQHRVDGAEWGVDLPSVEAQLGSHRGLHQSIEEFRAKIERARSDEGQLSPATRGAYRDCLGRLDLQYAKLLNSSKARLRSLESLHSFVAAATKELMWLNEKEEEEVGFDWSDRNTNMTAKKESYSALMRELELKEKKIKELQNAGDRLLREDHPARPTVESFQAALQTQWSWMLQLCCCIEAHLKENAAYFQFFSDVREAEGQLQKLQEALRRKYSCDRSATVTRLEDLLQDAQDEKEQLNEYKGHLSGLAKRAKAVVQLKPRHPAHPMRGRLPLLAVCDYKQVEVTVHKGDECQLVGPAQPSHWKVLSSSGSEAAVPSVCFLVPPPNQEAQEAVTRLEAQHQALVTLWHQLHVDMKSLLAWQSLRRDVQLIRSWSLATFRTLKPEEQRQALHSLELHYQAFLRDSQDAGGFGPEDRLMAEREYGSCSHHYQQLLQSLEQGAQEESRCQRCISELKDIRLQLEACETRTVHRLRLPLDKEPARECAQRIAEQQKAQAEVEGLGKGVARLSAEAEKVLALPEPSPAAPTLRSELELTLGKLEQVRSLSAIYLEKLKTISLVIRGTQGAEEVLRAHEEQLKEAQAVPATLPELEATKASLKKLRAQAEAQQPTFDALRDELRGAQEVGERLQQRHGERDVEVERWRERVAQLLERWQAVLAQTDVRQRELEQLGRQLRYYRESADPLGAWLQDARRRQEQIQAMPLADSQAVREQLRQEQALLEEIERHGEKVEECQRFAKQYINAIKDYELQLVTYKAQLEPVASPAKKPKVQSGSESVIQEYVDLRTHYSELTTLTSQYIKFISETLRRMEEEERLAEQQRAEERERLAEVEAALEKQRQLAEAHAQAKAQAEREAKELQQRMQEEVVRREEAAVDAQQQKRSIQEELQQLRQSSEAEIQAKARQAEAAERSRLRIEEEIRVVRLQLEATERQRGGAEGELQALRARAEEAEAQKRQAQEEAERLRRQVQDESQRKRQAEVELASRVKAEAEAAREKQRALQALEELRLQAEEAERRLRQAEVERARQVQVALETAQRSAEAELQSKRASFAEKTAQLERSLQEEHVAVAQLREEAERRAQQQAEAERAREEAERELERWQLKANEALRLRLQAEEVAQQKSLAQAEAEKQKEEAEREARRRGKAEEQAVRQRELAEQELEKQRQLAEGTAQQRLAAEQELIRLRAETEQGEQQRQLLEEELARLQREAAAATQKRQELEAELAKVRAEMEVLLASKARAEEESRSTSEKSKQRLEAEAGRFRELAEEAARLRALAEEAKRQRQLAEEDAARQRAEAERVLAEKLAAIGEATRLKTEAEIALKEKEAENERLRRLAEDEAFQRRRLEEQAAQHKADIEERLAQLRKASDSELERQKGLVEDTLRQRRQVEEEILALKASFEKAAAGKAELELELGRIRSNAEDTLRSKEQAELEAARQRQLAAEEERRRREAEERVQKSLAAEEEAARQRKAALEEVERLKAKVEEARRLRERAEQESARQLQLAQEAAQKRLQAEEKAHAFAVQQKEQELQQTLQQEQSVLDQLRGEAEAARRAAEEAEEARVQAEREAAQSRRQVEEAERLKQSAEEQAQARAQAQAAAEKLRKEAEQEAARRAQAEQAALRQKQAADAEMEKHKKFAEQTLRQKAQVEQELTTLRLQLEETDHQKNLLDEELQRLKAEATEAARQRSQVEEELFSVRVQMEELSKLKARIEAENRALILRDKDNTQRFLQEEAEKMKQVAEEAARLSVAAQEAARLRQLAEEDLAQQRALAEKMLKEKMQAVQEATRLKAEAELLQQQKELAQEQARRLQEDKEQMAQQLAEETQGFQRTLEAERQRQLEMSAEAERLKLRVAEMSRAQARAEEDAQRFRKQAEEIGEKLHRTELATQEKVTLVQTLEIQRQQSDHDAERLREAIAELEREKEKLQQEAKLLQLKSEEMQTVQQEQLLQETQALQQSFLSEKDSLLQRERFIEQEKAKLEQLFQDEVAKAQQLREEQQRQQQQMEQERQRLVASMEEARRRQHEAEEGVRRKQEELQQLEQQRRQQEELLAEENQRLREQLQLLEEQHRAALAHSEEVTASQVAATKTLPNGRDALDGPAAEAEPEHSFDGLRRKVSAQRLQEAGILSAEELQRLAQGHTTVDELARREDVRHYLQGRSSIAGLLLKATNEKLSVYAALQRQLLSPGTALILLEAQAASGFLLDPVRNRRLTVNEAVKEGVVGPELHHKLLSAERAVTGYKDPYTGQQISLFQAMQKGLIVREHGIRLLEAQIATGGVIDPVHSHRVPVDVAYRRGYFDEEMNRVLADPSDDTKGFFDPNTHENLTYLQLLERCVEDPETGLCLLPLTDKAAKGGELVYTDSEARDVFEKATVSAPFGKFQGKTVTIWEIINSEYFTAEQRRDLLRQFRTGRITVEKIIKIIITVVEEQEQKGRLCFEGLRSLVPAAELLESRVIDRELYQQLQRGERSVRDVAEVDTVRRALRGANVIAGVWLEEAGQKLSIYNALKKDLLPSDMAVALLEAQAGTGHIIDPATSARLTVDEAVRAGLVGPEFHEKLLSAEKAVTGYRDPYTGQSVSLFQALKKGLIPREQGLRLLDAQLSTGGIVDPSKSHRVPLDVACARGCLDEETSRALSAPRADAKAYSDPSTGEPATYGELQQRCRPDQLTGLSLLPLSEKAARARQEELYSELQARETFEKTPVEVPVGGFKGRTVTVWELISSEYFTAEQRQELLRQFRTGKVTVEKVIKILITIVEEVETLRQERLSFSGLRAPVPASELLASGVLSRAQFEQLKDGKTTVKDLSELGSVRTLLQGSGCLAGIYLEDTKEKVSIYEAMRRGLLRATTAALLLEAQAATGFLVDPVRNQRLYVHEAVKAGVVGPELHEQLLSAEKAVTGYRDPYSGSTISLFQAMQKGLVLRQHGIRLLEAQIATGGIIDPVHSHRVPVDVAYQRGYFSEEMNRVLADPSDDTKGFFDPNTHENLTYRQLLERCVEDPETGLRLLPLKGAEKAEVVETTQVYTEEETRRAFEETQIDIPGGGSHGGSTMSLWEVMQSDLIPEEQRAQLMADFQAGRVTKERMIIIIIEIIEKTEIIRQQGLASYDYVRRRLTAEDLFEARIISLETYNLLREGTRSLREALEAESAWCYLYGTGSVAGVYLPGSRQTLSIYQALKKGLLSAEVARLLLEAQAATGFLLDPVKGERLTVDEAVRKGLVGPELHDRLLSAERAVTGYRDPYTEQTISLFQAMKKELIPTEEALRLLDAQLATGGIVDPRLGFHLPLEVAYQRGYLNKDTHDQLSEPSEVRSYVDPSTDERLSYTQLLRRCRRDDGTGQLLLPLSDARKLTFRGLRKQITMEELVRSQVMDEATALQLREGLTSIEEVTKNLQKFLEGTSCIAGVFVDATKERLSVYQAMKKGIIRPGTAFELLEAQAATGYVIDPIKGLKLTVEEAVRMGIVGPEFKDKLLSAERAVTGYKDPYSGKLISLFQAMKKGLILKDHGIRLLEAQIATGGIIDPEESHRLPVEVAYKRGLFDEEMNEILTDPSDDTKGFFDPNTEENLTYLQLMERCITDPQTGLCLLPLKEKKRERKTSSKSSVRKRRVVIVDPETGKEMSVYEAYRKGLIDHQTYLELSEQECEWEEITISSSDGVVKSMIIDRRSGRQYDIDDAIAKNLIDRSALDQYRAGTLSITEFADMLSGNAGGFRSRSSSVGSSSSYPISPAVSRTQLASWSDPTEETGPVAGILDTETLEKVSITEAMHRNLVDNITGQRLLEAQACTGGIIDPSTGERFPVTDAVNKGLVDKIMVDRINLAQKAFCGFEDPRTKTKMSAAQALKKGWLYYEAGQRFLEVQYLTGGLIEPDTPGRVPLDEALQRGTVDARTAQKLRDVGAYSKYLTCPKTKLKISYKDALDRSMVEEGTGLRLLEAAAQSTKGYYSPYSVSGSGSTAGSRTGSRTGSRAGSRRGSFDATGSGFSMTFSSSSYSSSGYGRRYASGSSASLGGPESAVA
UniProt P08729: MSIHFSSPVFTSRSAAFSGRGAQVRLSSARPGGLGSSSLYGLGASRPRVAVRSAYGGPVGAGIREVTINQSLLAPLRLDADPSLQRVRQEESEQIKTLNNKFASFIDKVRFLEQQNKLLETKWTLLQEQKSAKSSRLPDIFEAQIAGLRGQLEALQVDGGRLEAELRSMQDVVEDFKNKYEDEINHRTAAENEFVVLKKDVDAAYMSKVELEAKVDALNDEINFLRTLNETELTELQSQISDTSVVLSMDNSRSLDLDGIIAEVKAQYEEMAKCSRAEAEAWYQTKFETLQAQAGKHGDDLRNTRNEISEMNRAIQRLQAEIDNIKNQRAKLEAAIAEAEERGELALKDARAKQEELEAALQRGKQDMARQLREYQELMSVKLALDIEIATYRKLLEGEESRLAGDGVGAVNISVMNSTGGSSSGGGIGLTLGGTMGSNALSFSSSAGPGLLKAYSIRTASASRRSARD

B1: keratin 18 (protein, UniProt P05783 1-430)
chain: MSFTTRSTFSTNYRSLGSVQAPSYGARPVSSAASVYAGAGGSGSRISVSRSTSFRGGMGSGGLATGIAGGLAGMGGIQNEKETMQSLNDRLASYLDRVRSLETENRRLESKIREHLEKKGPQVRDWSHYFKIIEDLRAQIFANTVDNARIVLQIDNARLAADDFRVKYETELAMRQSVENDIHGLRKVIDDTNITRLQLETEIEALKEELLFMKKNHEEEVKGLQAQIASSGLTVEVDAPKSQDLAKIMADIRAQYDELARKNREELDKYWSQQIEESTTVVTTQSAEVGAAETTLTELRRTVQSLEIDLDSMRNLKASLENSLREVEARYALQMEQLNGILLHLESELAQTRAEGQRQAQEYEALLNIKVKLEAEIATYRRLLEDGEDFNLGDALDSSNSMQTIQKTTTRRIVDGKVVSETNDTKVLRH

Columns and labels:
Experiment in all cases: cross-linking; in vivo crosslinking of a 1:1 mixture of SILAC light and heavy HeLa and HeLa/SN100 cells with the PIR crosslinker BDP-NHP, 10 mM, 1 h, room temperature; crosslinked peptides enriched (SCX, avidin) and identified by LC-MS (ReACT)
[1] = target: vimentin (human (endogenous in HeLa)) (UniProt P08670)
[2] = target: keratin 18 (human (endogenous in HeLa)) (UniProt P05783)
[3] = target: plectin (human (endogenous in HeLa)) (UniProt Q15149)

Molecule | binding [1] | binding [2] | binding [3]
keratin 7 (from UniProt P08729 1-469) | binds | – | –
B1 | – | binds | binds
